Reference: PMC9102673
Results are given in words; binding and its absence hold for the method and conditions named. Binding seen in cells or lysates may run through a third protein. A yes stands for co-enrichment or nearness to the bait. Other partners may have been found. Sequences can lack the tags named with a protein.

Amino acid sequences for entries named in this document (tags omitted).
UniProt O75147: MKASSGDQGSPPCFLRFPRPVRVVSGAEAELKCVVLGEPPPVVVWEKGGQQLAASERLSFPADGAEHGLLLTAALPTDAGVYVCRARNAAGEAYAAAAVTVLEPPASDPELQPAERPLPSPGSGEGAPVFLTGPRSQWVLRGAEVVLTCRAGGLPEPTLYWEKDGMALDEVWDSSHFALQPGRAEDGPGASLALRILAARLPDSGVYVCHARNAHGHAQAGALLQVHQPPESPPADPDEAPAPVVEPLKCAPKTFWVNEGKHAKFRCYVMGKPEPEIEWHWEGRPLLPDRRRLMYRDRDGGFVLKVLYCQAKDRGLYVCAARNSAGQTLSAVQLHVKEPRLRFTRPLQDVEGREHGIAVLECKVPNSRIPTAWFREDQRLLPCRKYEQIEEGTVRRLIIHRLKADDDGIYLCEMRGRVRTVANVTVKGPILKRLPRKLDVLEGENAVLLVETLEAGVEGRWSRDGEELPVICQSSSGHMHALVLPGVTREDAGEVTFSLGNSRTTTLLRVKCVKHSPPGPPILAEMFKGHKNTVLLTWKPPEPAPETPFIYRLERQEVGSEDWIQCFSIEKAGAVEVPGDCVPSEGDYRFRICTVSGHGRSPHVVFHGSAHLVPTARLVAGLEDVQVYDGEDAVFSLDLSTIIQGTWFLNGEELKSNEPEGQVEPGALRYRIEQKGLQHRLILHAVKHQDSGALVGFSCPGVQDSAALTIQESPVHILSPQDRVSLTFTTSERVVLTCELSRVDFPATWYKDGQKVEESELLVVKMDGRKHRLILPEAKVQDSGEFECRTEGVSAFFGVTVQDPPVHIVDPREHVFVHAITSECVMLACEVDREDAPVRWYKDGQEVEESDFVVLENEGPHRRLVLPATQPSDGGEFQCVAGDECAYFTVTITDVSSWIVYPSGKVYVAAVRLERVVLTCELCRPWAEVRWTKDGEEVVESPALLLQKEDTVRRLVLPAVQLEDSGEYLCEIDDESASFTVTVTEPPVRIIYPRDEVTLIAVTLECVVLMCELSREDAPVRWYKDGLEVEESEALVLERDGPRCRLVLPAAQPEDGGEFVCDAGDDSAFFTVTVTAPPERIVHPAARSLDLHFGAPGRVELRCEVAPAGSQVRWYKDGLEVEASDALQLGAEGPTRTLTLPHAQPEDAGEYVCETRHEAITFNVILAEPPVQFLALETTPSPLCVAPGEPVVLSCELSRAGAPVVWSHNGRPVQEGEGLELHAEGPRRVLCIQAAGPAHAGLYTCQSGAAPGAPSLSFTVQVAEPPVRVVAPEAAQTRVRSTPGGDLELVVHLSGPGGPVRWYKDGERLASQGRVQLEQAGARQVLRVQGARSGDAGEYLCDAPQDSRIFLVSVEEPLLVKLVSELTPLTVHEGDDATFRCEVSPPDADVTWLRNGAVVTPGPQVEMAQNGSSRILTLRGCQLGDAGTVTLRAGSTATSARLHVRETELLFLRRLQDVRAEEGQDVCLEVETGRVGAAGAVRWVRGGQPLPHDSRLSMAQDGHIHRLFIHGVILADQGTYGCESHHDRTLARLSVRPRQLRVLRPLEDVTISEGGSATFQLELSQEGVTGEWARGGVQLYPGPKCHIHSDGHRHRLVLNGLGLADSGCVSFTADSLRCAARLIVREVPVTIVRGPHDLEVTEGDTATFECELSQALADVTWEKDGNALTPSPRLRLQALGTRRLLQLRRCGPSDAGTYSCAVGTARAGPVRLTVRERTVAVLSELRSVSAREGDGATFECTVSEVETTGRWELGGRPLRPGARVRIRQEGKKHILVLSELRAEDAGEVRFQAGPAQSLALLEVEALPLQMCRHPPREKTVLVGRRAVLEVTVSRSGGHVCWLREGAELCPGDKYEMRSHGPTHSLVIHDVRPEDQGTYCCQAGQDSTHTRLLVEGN
UniProt Q14532: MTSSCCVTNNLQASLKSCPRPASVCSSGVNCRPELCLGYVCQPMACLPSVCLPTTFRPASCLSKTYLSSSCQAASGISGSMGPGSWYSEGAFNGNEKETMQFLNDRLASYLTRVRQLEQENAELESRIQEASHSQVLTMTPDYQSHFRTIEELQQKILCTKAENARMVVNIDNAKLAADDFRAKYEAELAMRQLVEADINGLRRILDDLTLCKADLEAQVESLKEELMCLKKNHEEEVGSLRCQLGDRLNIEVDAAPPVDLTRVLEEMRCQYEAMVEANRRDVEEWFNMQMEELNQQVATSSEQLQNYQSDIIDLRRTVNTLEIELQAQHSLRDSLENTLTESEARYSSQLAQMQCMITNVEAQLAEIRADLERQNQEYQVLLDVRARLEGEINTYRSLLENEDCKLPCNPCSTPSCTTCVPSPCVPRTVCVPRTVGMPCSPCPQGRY
UniProt P62491: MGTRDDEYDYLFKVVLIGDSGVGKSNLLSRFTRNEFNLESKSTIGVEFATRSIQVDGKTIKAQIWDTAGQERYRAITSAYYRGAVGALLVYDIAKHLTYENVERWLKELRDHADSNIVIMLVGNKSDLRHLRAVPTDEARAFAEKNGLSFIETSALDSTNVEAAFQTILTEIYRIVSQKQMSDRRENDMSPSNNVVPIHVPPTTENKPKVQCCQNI
UniProt Q86Y46: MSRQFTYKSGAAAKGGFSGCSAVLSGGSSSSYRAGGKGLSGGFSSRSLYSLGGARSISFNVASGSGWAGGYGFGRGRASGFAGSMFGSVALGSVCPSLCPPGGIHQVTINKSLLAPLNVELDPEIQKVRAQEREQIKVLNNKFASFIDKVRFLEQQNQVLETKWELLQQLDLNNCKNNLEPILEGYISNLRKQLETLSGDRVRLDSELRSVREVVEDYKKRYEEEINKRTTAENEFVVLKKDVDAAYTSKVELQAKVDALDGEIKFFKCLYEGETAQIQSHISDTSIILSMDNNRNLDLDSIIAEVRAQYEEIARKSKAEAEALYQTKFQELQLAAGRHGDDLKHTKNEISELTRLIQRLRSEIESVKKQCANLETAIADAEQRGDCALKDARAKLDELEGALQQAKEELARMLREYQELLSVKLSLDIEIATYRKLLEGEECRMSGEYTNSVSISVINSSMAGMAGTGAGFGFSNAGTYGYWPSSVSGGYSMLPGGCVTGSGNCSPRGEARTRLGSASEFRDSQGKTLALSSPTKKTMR
UniProt P06239: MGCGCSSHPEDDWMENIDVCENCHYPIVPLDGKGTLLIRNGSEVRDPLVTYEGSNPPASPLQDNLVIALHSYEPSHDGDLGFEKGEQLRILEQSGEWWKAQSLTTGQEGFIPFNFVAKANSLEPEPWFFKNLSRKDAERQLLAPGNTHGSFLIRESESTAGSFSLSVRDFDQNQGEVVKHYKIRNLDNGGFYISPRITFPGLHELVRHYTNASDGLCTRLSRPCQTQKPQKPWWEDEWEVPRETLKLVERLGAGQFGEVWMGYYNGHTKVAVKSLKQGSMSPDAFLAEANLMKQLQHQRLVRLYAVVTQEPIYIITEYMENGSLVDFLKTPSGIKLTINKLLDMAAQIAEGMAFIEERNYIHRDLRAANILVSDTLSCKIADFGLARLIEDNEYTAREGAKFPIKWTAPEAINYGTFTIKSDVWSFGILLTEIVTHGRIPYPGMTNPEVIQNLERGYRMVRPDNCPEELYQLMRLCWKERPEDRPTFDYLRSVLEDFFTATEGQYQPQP
UniProt Q9NR19: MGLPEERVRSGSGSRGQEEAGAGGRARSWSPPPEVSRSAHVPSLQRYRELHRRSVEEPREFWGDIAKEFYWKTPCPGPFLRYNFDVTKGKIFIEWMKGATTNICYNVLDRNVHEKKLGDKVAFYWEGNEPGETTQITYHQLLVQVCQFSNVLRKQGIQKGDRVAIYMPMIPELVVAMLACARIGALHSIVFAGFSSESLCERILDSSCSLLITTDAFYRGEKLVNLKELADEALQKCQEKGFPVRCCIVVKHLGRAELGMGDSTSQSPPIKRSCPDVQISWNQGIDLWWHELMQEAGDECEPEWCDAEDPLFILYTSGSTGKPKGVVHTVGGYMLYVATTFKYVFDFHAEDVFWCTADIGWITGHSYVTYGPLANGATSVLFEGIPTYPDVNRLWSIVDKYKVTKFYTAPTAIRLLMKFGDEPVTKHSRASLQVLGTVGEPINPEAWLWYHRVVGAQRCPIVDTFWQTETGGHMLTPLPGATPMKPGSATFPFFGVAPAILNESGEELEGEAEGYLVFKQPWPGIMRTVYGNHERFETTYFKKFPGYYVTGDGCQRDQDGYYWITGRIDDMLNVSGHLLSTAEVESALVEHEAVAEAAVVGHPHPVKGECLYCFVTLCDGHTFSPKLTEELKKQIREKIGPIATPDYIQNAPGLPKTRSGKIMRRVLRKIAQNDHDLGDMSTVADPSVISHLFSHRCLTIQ
UniProt Q9Y238: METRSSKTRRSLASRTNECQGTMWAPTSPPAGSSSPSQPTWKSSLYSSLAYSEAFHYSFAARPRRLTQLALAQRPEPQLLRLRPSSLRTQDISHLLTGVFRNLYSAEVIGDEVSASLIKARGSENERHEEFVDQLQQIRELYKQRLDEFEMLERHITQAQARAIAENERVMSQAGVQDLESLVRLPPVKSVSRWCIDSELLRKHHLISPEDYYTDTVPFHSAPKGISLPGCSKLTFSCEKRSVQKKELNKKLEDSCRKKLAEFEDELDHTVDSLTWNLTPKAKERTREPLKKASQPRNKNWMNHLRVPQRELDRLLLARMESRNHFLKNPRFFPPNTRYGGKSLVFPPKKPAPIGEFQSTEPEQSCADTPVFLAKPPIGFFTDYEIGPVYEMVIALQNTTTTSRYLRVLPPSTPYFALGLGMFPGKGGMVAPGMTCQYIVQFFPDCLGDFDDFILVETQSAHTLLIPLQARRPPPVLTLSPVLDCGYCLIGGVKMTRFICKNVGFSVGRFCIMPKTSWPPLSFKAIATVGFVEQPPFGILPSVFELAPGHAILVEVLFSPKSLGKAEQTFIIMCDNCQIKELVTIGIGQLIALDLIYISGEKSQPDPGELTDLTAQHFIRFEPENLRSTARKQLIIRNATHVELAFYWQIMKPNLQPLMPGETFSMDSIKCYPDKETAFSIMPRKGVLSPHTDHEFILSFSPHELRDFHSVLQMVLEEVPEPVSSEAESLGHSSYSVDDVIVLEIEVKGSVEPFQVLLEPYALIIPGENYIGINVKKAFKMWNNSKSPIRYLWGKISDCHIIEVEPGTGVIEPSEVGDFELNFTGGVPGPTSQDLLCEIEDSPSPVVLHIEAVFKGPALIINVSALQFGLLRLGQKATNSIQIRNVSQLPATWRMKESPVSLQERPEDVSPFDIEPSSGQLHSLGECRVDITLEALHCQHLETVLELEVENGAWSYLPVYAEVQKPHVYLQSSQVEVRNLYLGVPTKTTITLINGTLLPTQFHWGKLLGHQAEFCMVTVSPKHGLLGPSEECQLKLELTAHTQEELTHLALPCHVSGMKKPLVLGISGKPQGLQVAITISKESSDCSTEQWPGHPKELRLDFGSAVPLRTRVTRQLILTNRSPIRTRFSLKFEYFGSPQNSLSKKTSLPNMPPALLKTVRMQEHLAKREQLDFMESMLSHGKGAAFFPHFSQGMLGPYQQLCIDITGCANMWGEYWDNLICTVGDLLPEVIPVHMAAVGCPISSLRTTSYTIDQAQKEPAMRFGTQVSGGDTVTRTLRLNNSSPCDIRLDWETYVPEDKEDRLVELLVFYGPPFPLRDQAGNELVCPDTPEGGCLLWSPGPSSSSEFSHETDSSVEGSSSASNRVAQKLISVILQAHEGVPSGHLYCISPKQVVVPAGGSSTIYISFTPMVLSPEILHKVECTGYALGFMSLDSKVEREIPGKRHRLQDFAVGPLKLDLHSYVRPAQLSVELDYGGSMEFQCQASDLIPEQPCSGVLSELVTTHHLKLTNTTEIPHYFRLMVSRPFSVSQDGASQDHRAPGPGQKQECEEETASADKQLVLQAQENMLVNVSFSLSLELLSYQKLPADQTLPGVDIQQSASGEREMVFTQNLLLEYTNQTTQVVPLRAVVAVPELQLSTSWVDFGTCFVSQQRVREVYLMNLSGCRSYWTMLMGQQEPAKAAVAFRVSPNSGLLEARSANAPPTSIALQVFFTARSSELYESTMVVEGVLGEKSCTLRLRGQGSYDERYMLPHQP
UniProt O76011: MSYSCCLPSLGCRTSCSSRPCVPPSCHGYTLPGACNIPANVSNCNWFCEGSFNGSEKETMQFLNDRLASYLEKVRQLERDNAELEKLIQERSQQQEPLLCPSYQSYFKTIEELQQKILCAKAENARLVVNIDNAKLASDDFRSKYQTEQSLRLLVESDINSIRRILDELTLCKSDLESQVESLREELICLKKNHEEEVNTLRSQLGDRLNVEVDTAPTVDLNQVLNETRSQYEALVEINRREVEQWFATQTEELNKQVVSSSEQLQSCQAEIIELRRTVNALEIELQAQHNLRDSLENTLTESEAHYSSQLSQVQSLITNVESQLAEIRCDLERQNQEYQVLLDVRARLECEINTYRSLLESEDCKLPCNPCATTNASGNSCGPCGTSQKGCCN

T1: DDIT4–APEX2 fusion protein (rigid linker) (human) (UniProt Q9NX09)
T1 sequence: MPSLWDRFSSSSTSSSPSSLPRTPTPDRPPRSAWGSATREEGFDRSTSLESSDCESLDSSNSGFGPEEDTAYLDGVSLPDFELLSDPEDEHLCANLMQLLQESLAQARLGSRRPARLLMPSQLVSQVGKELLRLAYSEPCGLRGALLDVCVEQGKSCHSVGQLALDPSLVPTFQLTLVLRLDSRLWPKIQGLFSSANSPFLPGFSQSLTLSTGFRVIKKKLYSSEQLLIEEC

B1: ZNF622 (protein, UniProt Q969S3 1-477)
chain: MATYTCITCRVAFRDADMQRAHYKTDWHRYNLRRKVASMAPVTAEGFQERVRAQRAVAEEESKGSATYCTVCSKKFASFNAYENHLKSRRHVELEKKAVQAVNRKVEMMNEKNLEKGLGVDSVDKDAMNAAIQQAIKAQPSMSPKKAPPAPAKEARNVVAVGTGGRGTHDRDPSEKPPRLQWFEQQAKKLAKQQEEDSEEEEEDLDGDDWEDIDSDEELECEDTEAMDDVVEQDAEEEEAEEGPPLGAIPITDCLFCSHHSSSLMKNVAHMTKDHSFFIPDIEYLSDIKGLIKYLGEKVGVGKICLWCNEKGKSFYSTEAVQAHMNDKSHCKLFTDGDAALEFADFYDFRSSYPDHKEGEDPNKAEELPSEKNLEYDDETMELILPSGARVGHRSLMRYYKQRFGLSRAVAVAKNRKAVGRVLQQYRALGWTGSTGAALMRERDMQYVQRMKSKWMLKTGMKNNATKQMHFRVQVRF
B2: KRT82 (protein, UniProt Q9NSB4 1-513)
chain: MSYHSFQPGSRCGSQSFSSYSAVMPRMVTHYAVSKGPCRPGGGRGLRALGCLGSRSLCNVGFGRPRVASRCGGTLPGFGYRLGATCGPSACITPVTINESLLVPLALEIDPTVQRVKRDEKEQIKCLNNRFASFINKVRFLEQKNKLLETKWNFMQQQRCCQTNIEPIFEGYISALRRQLDCVSGDRVRLESELCSLQAALEGYKKKYEEELSLRPCVENEFVALKKDVDTAFLMKADLETNAEALVQEIDFLKSLYEEEICLLQSQISETSVIVKMDNSRELDVDGIIAEIKAQYDDIASRSKAEAEAWYQCRYEELRVTAGNHCDNLRNRKNEILEMNKLIQRLQQETENVKAQRCKLEGAIAEAEQQGEAALNDAKCKLAGLEEALQKAKQDMACLLKEYQEVMNSKLGLDIEIATYRRLLEGEEHRLCEGIGPVNISVSSSKGAFLYEPCGVSTPVLSTGVLRSNGGCSIVGTGELYVPCEPQGLLSCGSGRKSSMTLGAGGSSPSHKH
B3: PGAM2 (protein, UniProt P15259 1-253)
chain: MATHRLVMVRHGESTWNQENRFCGWFDAELSEKGTEEAKRGAKAIKDAKMEFDICYTSVLKRAIRTLWAILDGTDQMWLPVVRTWRLNERHYGGLTGLNKAETAAKHGEEQVKIWRRSFDIPPPPMDEKHPYYNSISKERRYAGLKPGELPTCESLKDTIARALPFWNEEIVPQIKAGKRVLIAAHGNSLRGIVKHLEGMSDQAIMELNLPTGIPIVYELNKELKPTKPMQFLGDEETVRKAMEAVAAQGKAK
B4: KRT13 (protein, UniProt P13646 1-458)
chain: MSLRLQSSSASYGGGFGGGSCQLGGGRGVSTCSTRFVSGGSAGGYGGGVSCGFGGGAGSGFGGGYGGGLGGGYGGGLGGGFGGGFAGGFVDFGACDGGLLTGNEKITMQNLNDRLASYLEKVRALEEANADLEVKIRDWHLKQSPASPERDYSPYYKTIEELRDKILTATIENNRVILEIDNARLAADDFRLKYENELALRQSVEADINGLRRVLDELTLSKTDLEMQIESLNEELAYMKKNHEEEMKEFSNQVVGQVNVEMDATPGIDLTRVLAEMREQYEAMAERNRRDAEEWFHTKSAELNKEVSTNTAMIQTSKTEITELRRTLQGLEIELQSQLSMKAGLENTVAETECRYALQLQQIQGLISSIEAQLSELRSEMECQNQEYKMLLDIKTRLEQEIATYRSLLEGQDAKMIGFPSSAGSVSPRSTSVTTTSSASVTTTSNASGRRTSDVRRP
B5: KRT85 (protein, UniProt P78386 1-507)
chain: MSCRSYRISSGCGVTRNFSSCSAVAPKTGNRCCISAAPYRGVSCYRGLTGFGSRSLCNLGSCGPRIAVGGFRAGSCGRSFGYRSGGVCGPSPPCITTVSVNESLLTPLNLEIDPNAQCVKQEEKEQIKSLNSRFAAFIDKVRFLEQQNKLLETKWQFYQNQRCCESNLEPLFSGYIETLRREAECVEADSGRLASELNHVQEVLEGYKKKYEEEVALRATAENEFVVLKKDVDCAYLRKSDLEANVEALVEESSFLRRLYEEEIRVLQAHISDTSVIVKMDNSRDLNMDCIIAEIKAQYDDVASRSRAEAESWYRSKCEEMKATVIRHGETLRRTKEEINELNRMIQRLTAEIENAKCQRAKLEAAVAEAEQQGEAALSDARCKLAELEGALQKAKQDMACLLKEYQEVMNSKLGLDIEIATYRRLLEGEEHRLCEGVGSVNVCVSSSRGGVSCGGLSYSTTPGRQITSGPSAIGGSITVVAPDSCAPCQPRSSSFSCGSSRSVRFA
B6: E2F7 (protein, UniProt Q96AV8 1-911)
chain: MEVNCLTLKDLISPRQPRLDFAVEDGENAQKENIFVDRSRMAPKTPIKNEPIDLSKQKKFTPERNPITPVKFVDRQQAEPWTPTANLKMLISAASPDIRDREKKKGLFRPIENKDDAFTDSLQLDVVGDSAVDEFEKQRPSRKQKSLGLLCQKFLARYPSYPLSTEKTTISLDEVAVSLGVERRRIYDIVNVLESLHLVSRVAKNQYGWHGRHSLPKTLRNLQRLGEEQKYEEQMAYLQQKELDLIDYKFGERKKDGDPDSQEQQLLDFSEPDCPSSSANSRKDKSLRIMSQKFVMLFLVSKTKIVTLDVAAKILIEESQDAPDHSKFKTKVRRLYDIANVLTSLALIKKVHVTEERGRKPAFKWIGPVDFSSSDEELVDVSASVLPELKRETYGQIQVCAKQKLARHGSFNTVQASERIQRKVNSEPSSPYREEQGSGGYSLEIGSLAAVYRQKIEDNSQGKAFASKRVVPPSSSLDPVAPFPVLSVDPEYCVNPLAHPVFSVAQTDLQAFSMQNGLNGQVDVSLASAASAVESLKPALLAGQPLVYVPSASLFMLYGSLQEGPASGSGSERDDRSSEAPATVELSSAPSAQKRLCEERKPQEEDEPATKRQSREYEDGPLSLVMPKKPSDSTDLASPKTMGNRASIPLKDIHVNGQLPAAEEISGKATANSLVSSEWGNPSRNTDVEKPSKENESTKEPSLLQYLCVQSPAGLNGFNVLLSGSQTPPTVGPSSGQLPSFSVPCMVLPSPPLGPFPVLYSPAMPGPVSSTLGALPNTGPVNFSLPGLGSIAQLLVGPTAVVNPKSSTLPSADPQLQSQPSLNLSPVMSRSHSVVQQPESPVYVGHPVSVVKLHQSPVPVTPKSIQRTHRETFFKTPGSLGDPVLKRRERNQSRNTSSAQRRLEIPSGGAD
B7: KRT86 (protein, UniProt O43790 1-486)
chain: MTCGSYCGGRAFSCISACGPRPGRCCITAAPYRGISCYRGLTGGFGSHSVCGGFRAGSCGRSFGYRSGGVCGPSPPCITTVSVNESLLTPLNLEIDPNAQCVKQEEKEQIKSLNSRFAAFIDKVRFLEQQNKLLETKLQFYQNRECCQSNLEPLFEGYIETLRREAECVEADSGRLASELNHVQEVLEGYKKKYEEEVSLRATAENEFVALKKDVDCAYLRKSDLEANVEALIQEIDFLRRLYEEEIRVLQSHISDTSVVVKLDNSRDLNMDCIIAEIKAQYDDIVTRSRAEAESWYRSKCEEMKATVIRHGETLRRTKEEINELNRMIQRLTAEVENAKCQNSKLEAAVAQSEQQGEAALSDARCKLAELEGALQKAKQDMACLIREYQEVMNSKLGLDIEIATYRRLLEGEEQRLCEGVGSVNVCVSSSRGGVVCGDLCASTTAPVVSTRVSSVPSNSNVVVGTTNACAPSARVGVCGGSCKRC

molecular target: T1, DDIT4–APEX2 fusion protein (rigid linker) (human); assay: proximity labelling; DDIT4–APEX2 (rigid linker) expressed in SK-N-SH cells; 1 mM biotin tyramide 45 min at 37 °C with or without 330 μM NaAsO2, 1 mM H2O2 for 1.5 min; biotinylated proteins captured on streptavidin magnetic particles and identified by LC-MS/MS; proteins labelled by APEX2 alone filtered out

Row | binding | Molecule
1 | binds | PTPN11 (from UniProt Q06124 1-593)
2 | binds | CDK5 (from UniProt Q00535 1-292)
3 | binds | OBSL1 (from UniProt O75147 1-1896)
4 | binds | NKX2-5 (from UniProt P52952 1-324)
5 | binds | structural maintenance of chromosomes 3 (SMC3) (from UniProt Q9UQE7 1-1217)
6 | binds | KRT32 (from UniProt Q14532 1-448)
7 | binds | RAB11A (from UniProt P62491 1-216)
8 | binds | KRT73 (from UniProt Q86Y46 1-540)
9 | binds | NOTCH2 (from UniProt Q04721 26-2471)
10 | binds | vimentin (VIM) (from UniProt P08670 1-466)
11 | binds | ASCC3 (from UniProt Q8N3C0 1-2202)
12 | binds | LCK (from UniProt P06239 1-509)
13 | binds | NME/NM23 nucleoside diphosphate kinase 1 (NME1) (from UniProt P15531 1-152)
14 | binds | protein phosphatase 2 scaffold subunit A (PPP2R1A) (from UniProt P30153 1-589)
15 | binds | KRT71 (from UniProt Q3SY84 1-523)
16 | binds | ACSS2 (from UniProt Q9NR19 1-701)
17 | binds | GNB1 (from UniProt P62873 1-340)

Row | binding | Molecule
18 | binds | DLEC1 (from UniProt Q9Y238 1-1755)
19 | binds | ALPK2 (from UniProt Q86TB3 1-2170)
20 | binds | LYAR (from UniProt Q9NX58 1-379)
21 | binds | KRT33B (from UniProt Q14525 1-404)
22 | binds | KRT34 (from UniProt O76011 1-394)
23 | binds | KRT33A (from UniProt O76009 1-404)
24 | binds | keratin 17 (KRT17) (from UniProt Q04695 1-432)
25 | binds | EIF3G (from UniProt O75821 1-320)
26 | binds | KRT6C (from UniProt P48668 1-564)
27 | binds | KRT31 (from UniProt Q15323 1-416)
28 | binds | B1
29 | binds | B2
30 | binds | B3
31 | binds | B4
32 | binds | B5
33 | binds | B6
34 | binds | B7
